Experimental data reported in PubChem BioAssay AID540275 (National Center for Advancing Translational Sciences (NCATS), 2011).
About 620 (0.19%) of roughly 320,000 compounds were called active. Inconclusive results, whose numbers are uncertain, are shown with a selection of clear calls. Rule as the data show it: active = activation above about 80%; inconclusive = between about 30% and that limit; inactive = weaker than that.

By UniProt entry, the sequences of proteins in these tests, tags left out.
UniProt Q8NER1, whole entry, looked up: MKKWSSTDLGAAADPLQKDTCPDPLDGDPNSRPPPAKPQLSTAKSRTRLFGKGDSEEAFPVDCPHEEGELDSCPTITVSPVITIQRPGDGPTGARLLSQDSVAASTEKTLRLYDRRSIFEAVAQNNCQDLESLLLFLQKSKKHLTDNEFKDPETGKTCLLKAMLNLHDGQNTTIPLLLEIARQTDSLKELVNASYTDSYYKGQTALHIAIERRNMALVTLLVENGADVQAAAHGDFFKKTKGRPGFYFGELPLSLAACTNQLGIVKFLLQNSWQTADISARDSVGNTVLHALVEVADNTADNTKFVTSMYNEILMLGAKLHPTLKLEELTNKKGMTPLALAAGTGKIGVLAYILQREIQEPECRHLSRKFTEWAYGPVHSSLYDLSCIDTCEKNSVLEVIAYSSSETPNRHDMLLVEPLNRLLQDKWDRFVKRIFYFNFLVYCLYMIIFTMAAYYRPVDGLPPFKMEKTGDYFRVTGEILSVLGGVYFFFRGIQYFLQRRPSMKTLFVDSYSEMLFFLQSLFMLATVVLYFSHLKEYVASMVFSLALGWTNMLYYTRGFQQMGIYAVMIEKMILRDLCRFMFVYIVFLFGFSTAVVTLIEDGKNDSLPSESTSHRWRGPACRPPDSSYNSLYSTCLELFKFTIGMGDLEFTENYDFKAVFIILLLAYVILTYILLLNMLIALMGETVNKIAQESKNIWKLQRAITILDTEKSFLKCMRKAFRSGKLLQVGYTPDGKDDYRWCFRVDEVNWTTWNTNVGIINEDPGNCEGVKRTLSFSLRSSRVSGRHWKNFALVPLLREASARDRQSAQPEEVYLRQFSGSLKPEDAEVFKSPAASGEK

Molecular target: Transient receptor potential cation channel subfamily V member 1 (Homo sapiens) (UniProt Q8NER1)
Test: HTS Assay for Compounds that Act as Agonists of the Vanilloid Receptor 1; also: 0% is about no effect
Conditions: TRPV1-expressing cells, Fluo-8 calcium influx, agonist mode; at 8.33 µM, stronger effect = higher value
Procedure, shortened: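 TRPV1-expressing cells were cultured overnight at 35.5C and loaded with Fluo-8 calcium dye for 40 to 90 min at room temperature. After a 10 s baseline, compound was added and calcium influx was read kinetically for 3 min (ex 480/em 520 nm).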

Compound | activation
Cn1c(=O)c2c(nc(N3CCOCC3)n2C)n(C)c1=O | inactive: -3.53%
O=C(N/N=C/c1ccccc1F)c1ccccc1OCc1ccccc1 | inconclusive: 40.3%
COc1cc2c(cc1OC)CN(CC(=O)Nc1ccc(C)c(S(=O)(=O)N3CCOCC3)c1)CC2 | inconclusive: 55%
O=C(/C(=C/c1ccc(Cl)cc1)c1nc2ccccc2[nH]1)c1cccs1 | inconclusive: 51.3%
NC(=O)COC(=O)c1oc2ccccc2c1CSc1ccc(Cl)cc1 | inconclusive: 34.3%
O=C(OCC#CCSc1nnc(-c2cccc3ccccc23)o1)c1ccco1 | inconclusive: 36.9%
CCOC(=O)N1CCN(c2nc(SC)nc3sc4c(c23)CC(C)(C)OC4)CC1 | inconclusive: 61.8%
C=CCNC(=O)COc1ccc(Oc2ccccc2)cc1 | inconclusive: 64.7%
CCN1C(=O)N[C@@H](CCc2ccccc2)[C@@H](C(=O)OC)[C@H]1C | inconclusive: 38.3%
CC1CCCCC12NC(=O)N(CC(=O)Nc1cccc(S(=O)(=O)N3CCCCC3)c1)C2=O (centres undefined) | inactive: 2.35%
S=C(NCCCc1ccccc1)Nc1ccccc1 | inconclusive: 57.3%
CCOC(=O)c1c(NC(=O)C2C3CCC(O3)C2C(=O)O)sc2c1CCC(CC)C2 (centres undefined) | inactive: 0.25%
O=C(Nc1ccc2c(c1)CCC2)c1cc(F)cc(F)c1 | inconclusive: 58.6%
Cc1cc(C(=O)NCc2ccccc2Cl)n(-c2ccccc2)n1 | inactive: -1.21%
Cn1ccsc1=NC(=O)c1cccc(OC(F)F)c1 | inconclusive: 40.6%
Cn1ccs/c1=N\C(=O)Nc1cccc(Cl)c1 | inconclusive: 44.7%
COc1ccccc1OCCC(=O)OCC(=O)Nc1ccc(Br)cc1 | inactive: 5.64%
COC(=O)c1sccc1NC(=O)COc1cccc(C)c1 | inconclusive: 31.5%
Cc1ccc(S(=O)(=O)c2c(N)n(NC(=O)c3ccco3)c3nc4ccccc4nc23)cc1 | inactive: -2.96%
COc1ccc(NC(=O)C2CCN(C(=O)Nc3ccc(C)cc3)CC2)cc1OC | inconclusive: 71.1%

Compound | activation
O=C(NC1CCCCC1)C(=O)c1c(-c2ccccc2)[nH]c2ccccc12 | inconclusive: 46.6%
O=c1c2ccccc2nc(/C=C/c2cccnc2)n1CCc1ccccc1 | inconclusive: 44.2%
Cc1ccc(SCCNC(=S)Nc2ccc(C)cc2C)cc1 | inconclusive: 41.3%
CCOCCCNC(=S)Nc1cc(C)cc(C)c1 | inactive: 11.6%
CCn1c(-c2cc(-c3ccc(C)c(C)c3)nc3ccccc23)n[nH]c1=S | inconclusive: 40.1%
N=c1c2c(n(Cc3ccc(Cl)c(Cl)c3)c3c1CCC3)CCCC2 | inactive: 12.1%
Cc1nnsc1SCCNC(=O)Nc1ccc(Cl)cc1 | inconclusive: 60.1%
CCCCCCCC1(C)NC(=O)N(CC(=O)Nc2cc(C)on2)C1=O (centres undefined) | inconclusive: 32%
CCCCOC(=O)CCc1nc2ccccc2[nH]c1=O | inactive: -1.15%
CC(=O)c1cccc(NC(=O)Nc2csc3c2CCCC3)c1 | inconclusive: 57.2%
O=[N+]([O-])c1ccc(NC(=S)NCCc2ccc(Cl)cc2)cc1 | inconclusive: 53.5%
CC(C)OC(=O)CC(=O)CSc1nc2c(c(-c3cccs3)c1C#N)CCC2 | inactive: -5.41%
CCn1nnnc1SCC(=O)c1ccc(C)cc1 | inactive: -0.611%
CCOC(=O)c1cnc(-n2nc(C)cc2C)nc1NC1CCCCC1 | inconclusive: 37.6%
Cc1cccc(OCC(=O)Nc2nnc(S(=O)(=O)N3CCc4ccccc43)s2)c1 | inactive: -3.9%
O=C(Nc1ccc(N=Nc2ccccc2)cc1)c1ccc(Cl)cc1Cl | inactive: 3.84%
CS(=O)(=O)N1CCN(c2ccc(NC(=O)c3cc4ccccc4o3)cc2)CC1 | inactive: -0.793%
CC(=O)NCCCc1nc2ccccc2n1Cc1ccccc1F | inconclusive: 45.8%
Cc1cc(N2CCOCC2)nc2ccc(NC(=S)NC(C)C)cc12 | inactive: 2.93%
Cc1cc(C)nc(N2CCCC(C(=O)Nc3cccc(Cl)c3)C2)n1 (centres undefined) | inconclusive: 56%

Compound | activation
CC1(C)Cc2c(c(N3CCOCC3)nc3sc4c(NCc5ccco5)nnnc4c23)CS1 | inconclusive: 33.5%
S=c1nc2c(n[nH]1)c1ccccc1n2CCc1ccccc1 | inactive: -6.26%
OCC1(Cc2ccc(Cl)cc2)CCN(Cc2ccccc2F)CC1 | inactive: 13%
CCC(=O)/C=C1/Sc2ccc(OC)cc2N1CCO | inactive: -2.39%
COCCSc1nnc(NC(=O)c2ccc3c(c2)OCO3)s1 | inconclusive: 55.4%
Cc1ccc(C)c(C(=O)COC(=O)C2CCN(c3ccc(C(F)(F)F)cn3)CC2)c1 | inactive: 1.34%
C[C@H](NC(N)=O)C(=O)OCC(=O)NCc1cccs1 | inactive: -0.448%
COc1ccccc1N1CCN(C(=O)c2ccc(S(=O)(=O)N3CCCCCC3)cc2)CC1 | inactive: 2.47%
O=C(Nc1ccc([N+](=O)[O-])cc1)Nc1ccc(OC(F)F)c(Cl)c1 | inactive: 2.53%
O=C(CCCCl)OCc1cn(-c2ccc(Cl)cc2)nn1 | inconclusive: 39%
COc1ccc(-c2cc(C(F)(F)F)nc(SCCC(=O)N3CCOCC3)n2)cc1 | inconclusive: 64.1%
O=C1NC2=C(C(=O)CCC2)C(c2ccc3ncccc3c2)N1 (centres undefined) | inactive: 2.98%
O=C(O)CCCNc1cc(N2CCN(C(=O)c3ccco3)CC2)c2noc3c2c1C(=O)c1ccccc1-3 | inactive: -0.51%
O=C(Nc1ccccc1)C1=C(c2ccccc2)S(=O)(=O)CCS1(=O)=O | inactive: 0.945%
COc1cccc(NC(=O)c2ccc(S(=O)(=O)NCc3cccnc3)cc2)c1 | inactive: 1.92%
O=c1[nH]c2ccccc2n1CCC1CCCCC1 | inconclusive: 44.8%
CCCNC(=O)c1cn(CC)c2cc(N3CCN(C(=O)c4ccco4)CC3)c(F)cc2c1=O | inactive: 0.715%
CCCOc1cccc(C(=O)Nc2cc(NC(=O)c3ccco3)ccc2OC)c1 | inconclusive: 45.7%
CSCCC(NC(=O)COc1ccccc1)C(=O)N1CCN(c2ccccc2Cl)CC1 (centres undefined) | inconclusive: 42.8%
